From patent US20120058105A1
These are yes or no findings as the source states them, for the method shown. Binding seen in cells or lysates may run through a third protein. Some entries that bind do so weakly or less than the wild type.

What was measured:
[1] = target: T1, thioredoxin (TRX1) (human) (UniProt P10599); assay: co-immunoprecipitation from HCAEC lysates (anti-TXNIP pull-down, anti-TRX Western blot), 5 mM vs 25 mM D-glucose
T1 sequence: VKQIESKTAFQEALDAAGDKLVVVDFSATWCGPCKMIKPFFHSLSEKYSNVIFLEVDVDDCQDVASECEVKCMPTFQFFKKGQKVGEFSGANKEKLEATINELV

[2] = target: T1, thioredoxin (TRX1) (human); assay: co-immunoprecipitation from HCAEC lysates (rabbit anti-VDUP1/TXNIP on Protein G Sepharose, Western blot with rabbit anti-TRX1), 5 or 25 mM D-glucose for 24 h

binding [1]: binds
binding [2]: binds
B1: thioredoxin interacting protein (TXNIP) (protein)
chain: MVMFKKIKSFEVVFNDPEKVYGSGEKVAGRVIVEVCEVTRVKAVRILACGVAKVLWMQGSQQCKQTSEYLRYEDTLLLEDQPTGENEMVIMRPGNKYEYKFGFELPQGPLGTSFKGKYGCVDYWVKAFLDRPSQPTQETKKNFEVVDLVDVNTPDLMAPVSAKKEKKVSCMFIPDGRVSVSARIDRKGFCEGDEISIHADFENTCSRIVVPKAAIVARHTYLANGQTKVLTQKLSSVRGNHIISGTCASWRGKSLRVQKIRPSILGCNILRVEYSLLIYVSVPGSKKVILDLPLVIGSRSGLSSRTSSMASRTSSEMSWVDLNIPDTPEAPPCYMDVIPEDHRLESPTTPLLDDMDGSQDSPIFMYAPEFKFMPPPTYTEVDPCILNNNVQ
